Among the data in publication PMC3641136 are binding values, retold here.

The target in the test is T1, GlyT2, endogenous in rat brain stem primary neurons (rat (endogenous in brain stem primary neurons)) (UniProt P58295).
T1 sequence: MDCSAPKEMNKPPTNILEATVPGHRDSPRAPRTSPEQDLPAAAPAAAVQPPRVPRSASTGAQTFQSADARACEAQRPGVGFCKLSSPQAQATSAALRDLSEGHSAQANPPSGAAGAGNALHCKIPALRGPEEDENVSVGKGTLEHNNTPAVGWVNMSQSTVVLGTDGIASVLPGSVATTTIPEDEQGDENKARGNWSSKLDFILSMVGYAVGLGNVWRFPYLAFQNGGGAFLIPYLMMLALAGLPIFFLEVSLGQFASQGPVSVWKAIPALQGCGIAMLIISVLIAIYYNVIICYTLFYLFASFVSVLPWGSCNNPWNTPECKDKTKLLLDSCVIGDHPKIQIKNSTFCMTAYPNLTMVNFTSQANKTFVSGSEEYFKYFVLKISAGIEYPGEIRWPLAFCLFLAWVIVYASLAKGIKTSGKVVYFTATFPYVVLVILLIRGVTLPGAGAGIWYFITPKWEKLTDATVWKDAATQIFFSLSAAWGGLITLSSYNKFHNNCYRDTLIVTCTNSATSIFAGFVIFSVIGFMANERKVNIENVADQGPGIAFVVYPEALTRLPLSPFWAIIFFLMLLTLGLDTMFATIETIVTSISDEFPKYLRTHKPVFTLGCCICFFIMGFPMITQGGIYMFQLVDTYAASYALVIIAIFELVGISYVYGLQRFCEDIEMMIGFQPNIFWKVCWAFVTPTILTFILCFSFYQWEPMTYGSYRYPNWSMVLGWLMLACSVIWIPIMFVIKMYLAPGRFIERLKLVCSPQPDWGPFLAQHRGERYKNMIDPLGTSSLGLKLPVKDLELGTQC
Kind of test: co-IP; rat brain stem primary neurons immunoprecipitated with anti-GlyT2 antibody made in rat; Western blot for GlyT2 or CNX with rabbit antibodies.

No constants are given. Whether binding was seen depends on the method and setting. Binding seen in cells or lysates may run through a third protein. Some results given as binding are weak or reduced against the parent protein; the word gives no strength.

B1: calnexin (CNX), endogenous in rat brain stem primary neurons (protein, UniProt P35565 21-591)
chain: HDGHDDDMIDIEDDLDDVIEEVEDSKSKSDTSTPPSPKVTYKAPVPTGEVYFADSFDRGSLSGWILSKAKKDDTDDEIAKYDGKWEVDEMKETKLPGDKGLVLMSRAKHHAISAKLNKPFLFDTKPLIVQYEVNFQNGIECGGAYVKLLSKTSELNLDQFHDKTPYTIMFGPDKCGEDYKLHFIFRHKNPKTGVYEEKHAKRPDADLKTYFTDKKTHLYTLILNPDNSFEILVDQSVVNSGNLLNDMTPPVNPSREIEDPEDRKPEDWDERPKIADPDAVKPDDWDEDAPSKIPDEEATKPEGWLDDEPEYIPDPDAEKPEDWDEDMDGEWEAPQIANPKCESAPGCGVWQRPMIDNPNYKGKWKPPMIDNPNYQGIWKPRKIPNPDFFEDLEPFRMTPFSAIGLELWSMTSDIFFDNFIISGDRRVVDDWANDGWGLKKAADGAAEPGVVGQMLEAAEERPWLWVVYILTVALPVFLVILFCCSGKKQSNAMEYKKTDAPQPDVKDEEGKEEEKNKGDEEEEEEKLEEKQKSDAEEDGGTGSQDEEDSKPKAEEDEILNRSPRNRKPRRE
With B1, the binding entry is “binds”.
